No constants are given. Whether binding was seen depends on the method and setting. For some assays here: In cells and extracts the contact can be indirect. Some entries that bind do so weakly or less than the wild type.
Columns and labels:
[1] = biological target: T1, DYNLRB2, yeast two-hybrid bait (in pGBKT7) (mouse) (UniProt Q9DAJ5); assay: two-hybrid; baits in pGBKT7 and prey in pGADT7 co-transformed into yeast strain AH109; selection on SD-tryptophan-leucine-histidine-adenine plates
T1 sequence: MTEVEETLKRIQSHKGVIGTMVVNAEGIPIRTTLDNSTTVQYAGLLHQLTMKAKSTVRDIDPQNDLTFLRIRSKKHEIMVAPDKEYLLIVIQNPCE

Amino acid sequences for entries named in this document (tags omitted).
UniProt O88485: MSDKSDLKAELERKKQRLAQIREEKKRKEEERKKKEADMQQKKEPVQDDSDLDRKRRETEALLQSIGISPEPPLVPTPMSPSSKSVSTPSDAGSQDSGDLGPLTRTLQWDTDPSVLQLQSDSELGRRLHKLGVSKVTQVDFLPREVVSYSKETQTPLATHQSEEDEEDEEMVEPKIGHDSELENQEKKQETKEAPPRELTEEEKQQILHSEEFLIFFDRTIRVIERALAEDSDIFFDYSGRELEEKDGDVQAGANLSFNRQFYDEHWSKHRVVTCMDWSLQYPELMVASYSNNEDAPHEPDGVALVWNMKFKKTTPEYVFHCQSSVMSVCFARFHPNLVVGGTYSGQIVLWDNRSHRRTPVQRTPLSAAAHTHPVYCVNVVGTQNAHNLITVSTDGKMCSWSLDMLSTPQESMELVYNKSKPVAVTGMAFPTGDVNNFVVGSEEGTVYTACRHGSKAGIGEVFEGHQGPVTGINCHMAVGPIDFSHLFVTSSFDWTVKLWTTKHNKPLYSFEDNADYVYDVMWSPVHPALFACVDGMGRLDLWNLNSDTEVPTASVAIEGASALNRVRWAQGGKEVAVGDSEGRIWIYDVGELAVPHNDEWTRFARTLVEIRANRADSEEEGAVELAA
UniProt Q14204: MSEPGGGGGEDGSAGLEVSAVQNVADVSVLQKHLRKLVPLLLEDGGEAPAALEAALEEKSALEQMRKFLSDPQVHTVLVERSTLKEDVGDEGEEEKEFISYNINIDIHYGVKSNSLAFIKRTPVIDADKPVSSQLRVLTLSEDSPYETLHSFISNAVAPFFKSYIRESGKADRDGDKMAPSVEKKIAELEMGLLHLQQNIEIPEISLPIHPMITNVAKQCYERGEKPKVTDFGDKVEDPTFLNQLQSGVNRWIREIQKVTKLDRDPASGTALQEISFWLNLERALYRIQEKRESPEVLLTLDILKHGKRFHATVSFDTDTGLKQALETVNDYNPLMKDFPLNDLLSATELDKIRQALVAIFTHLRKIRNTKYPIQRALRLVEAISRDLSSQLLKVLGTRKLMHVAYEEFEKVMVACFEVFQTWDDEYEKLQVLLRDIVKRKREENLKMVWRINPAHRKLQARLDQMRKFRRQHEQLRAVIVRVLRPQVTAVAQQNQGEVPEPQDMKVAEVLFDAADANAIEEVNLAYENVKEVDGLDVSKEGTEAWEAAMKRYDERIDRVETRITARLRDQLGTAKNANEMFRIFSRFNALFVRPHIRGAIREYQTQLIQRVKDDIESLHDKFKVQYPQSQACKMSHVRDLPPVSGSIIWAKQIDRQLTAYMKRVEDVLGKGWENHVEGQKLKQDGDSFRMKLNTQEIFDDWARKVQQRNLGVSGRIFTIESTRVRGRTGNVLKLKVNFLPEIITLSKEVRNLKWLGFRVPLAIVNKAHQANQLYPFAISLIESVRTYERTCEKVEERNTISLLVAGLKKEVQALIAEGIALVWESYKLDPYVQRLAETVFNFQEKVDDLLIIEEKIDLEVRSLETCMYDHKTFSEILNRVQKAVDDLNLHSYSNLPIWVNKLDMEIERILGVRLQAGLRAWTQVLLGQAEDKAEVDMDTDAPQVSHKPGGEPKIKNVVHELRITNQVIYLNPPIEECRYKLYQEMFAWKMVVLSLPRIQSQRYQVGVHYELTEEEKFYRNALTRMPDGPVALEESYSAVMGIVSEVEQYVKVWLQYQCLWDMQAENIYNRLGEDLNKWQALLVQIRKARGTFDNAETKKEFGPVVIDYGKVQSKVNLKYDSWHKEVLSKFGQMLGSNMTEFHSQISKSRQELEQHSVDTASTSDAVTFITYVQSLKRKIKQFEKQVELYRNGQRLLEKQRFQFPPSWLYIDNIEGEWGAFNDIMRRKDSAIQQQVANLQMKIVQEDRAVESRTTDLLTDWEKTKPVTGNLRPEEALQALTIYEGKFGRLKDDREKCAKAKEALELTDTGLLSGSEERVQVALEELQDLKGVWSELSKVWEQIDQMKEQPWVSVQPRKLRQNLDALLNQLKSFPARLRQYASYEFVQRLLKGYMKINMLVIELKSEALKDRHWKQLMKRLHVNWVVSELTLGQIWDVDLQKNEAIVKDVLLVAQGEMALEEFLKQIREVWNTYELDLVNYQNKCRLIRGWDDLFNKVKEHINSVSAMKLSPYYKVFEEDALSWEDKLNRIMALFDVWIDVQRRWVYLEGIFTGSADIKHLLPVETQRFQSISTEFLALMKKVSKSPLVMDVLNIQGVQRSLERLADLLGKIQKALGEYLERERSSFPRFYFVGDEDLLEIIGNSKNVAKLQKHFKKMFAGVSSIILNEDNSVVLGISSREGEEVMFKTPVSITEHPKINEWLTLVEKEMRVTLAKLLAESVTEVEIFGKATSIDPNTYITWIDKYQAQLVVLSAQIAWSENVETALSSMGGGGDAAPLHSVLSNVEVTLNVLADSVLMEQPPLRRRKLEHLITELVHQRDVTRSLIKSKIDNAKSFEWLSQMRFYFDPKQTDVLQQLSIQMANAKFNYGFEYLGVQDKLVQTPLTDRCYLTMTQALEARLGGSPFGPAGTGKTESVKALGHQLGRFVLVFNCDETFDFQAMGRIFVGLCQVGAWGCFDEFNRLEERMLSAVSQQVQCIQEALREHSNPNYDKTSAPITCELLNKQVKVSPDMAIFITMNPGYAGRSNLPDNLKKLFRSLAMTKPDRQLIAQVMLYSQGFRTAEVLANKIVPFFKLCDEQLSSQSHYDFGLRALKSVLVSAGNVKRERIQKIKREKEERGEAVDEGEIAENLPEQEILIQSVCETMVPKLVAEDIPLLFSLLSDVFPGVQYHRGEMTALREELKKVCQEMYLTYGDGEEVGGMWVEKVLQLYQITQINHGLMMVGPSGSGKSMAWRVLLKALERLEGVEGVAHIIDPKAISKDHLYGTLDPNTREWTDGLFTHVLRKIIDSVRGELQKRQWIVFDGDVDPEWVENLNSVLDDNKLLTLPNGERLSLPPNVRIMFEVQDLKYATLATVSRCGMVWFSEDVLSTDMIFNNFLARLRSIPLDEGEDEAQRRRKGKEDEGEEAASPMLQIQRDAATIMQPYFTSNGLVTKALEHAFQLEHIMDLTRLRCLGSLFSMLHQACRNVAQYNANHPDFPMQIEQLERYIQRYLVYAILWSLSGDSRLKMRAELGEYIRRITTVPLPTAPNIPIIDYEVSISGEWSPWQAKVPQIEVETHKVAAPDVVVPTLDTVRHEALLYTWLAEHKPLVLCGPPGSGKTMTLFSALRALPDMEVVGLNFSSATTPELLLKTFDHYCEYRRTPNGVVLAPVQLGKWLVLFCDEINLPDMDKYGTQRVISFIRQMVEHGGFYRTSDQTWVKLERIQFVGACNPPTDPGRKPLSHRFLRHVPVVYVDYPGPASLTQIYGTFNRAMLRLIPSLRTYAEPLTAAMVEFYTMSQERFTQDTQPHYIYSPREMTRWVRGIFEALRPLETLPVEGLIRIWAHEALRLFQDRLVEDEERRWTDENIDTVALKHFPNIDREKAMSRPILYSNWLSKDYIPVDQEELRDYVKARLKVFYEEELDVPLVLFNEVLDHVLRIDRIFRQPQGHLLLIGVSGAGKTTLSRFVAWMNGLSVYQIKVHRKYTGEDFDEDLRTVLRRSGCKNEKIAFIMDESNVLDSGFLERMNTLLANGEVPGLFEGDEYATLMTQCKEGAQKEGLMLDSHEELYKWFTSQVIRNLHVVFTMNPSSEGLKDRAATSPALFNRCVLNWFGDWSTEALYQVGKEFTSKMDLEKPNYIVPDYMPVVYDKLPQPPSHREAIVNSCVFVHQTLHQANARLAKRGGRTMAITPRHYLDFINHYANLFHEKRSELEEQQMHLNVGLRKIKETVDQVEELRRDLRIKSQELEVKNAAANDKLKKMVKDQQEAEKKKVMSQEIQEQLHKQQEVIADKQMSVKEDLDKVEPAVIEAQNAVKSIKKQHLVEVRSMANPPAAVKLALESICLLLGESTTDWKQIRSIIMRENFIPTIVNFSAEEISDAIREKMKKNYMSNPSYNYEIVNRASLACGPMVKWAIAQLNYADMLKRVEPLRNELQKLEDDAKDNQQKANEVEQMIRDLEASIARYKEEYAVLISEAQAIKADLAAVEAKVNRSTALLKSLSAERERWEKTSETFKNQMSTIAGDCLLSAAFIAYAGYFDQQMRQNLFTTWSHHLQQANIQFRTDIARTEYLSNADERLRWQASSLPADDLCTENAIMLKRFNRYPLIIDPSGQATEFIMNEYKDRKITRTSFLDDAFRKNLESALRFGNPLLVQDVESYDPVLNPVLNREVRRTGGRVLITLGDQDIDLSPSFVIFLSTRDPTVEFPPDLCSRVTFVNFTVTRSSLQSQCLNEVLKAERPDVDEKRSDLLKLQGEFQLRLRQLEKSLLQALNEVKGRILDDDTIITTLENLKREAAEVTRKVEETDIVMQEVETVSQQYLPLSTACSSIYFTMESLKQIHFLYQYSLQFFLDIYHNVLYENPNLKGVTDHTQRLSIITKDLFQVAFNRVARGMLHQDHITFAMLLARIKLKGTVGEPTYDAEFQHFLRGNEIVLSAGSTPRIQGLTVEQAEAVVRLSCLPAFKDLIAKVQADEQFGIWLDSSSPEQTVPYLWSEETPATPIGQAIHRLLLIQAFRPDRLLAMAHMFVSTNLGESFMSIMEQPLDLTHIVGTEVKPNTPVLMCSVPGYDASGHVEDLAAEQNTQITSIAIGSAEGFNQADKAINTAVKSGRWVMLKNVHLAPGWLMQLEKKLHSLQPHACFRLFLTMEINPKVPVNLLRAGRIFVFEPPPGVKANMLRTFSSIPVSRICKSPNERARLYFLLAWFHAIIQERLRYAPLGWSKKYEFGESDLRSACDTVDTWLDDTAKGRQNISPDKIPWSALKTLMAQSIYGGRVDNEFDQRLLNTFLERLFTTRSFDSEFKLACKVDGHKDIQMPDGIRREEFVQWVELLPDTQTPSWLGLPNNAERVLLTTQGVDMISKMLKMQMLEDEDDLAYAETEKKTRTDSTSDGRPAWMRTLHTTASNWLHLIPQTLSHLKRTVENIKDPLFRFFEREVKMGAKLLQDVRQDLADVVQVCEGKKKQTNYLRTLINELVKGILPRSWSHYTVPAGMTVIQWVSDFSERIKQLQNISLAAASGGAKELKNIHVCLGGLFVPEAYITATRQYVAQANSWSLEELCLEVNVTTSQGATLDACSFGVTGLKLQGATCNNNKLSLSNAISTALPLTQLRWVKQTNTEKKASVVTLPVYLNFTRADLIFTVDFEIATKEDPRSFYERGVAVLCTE

[2] = biological target: FLAG-hDYNLRB2 (human) (UniProt Q8TF09); assay: co-IP; FLAG-IP (anti-FLAG M2 Affinity Gel, eluted with 3x FLAG peptide) from lysates of HeLa cells stably expressing GFP-labeled dynein HC and transfected with FLAG-hDYNLRB1 or FLAG-hDYNLRB2; GFP-dynein in the eluate seen by single-molecule imaging on microtubules

## DYNC1I1, yeast two-hybrid prey (in pGADT7) (from UniProt O88485 1-628)
[1]
  binding: binds

## GFP-labeled dynein HC (from UniProt Q14204 1-4646)
[2]
  binding: binds
